Here are results for 4 compounds from patent US7919268B2, “Reducing sample turbidity in measurement of enzymatic activity in cell lysates” (Roche Diagnostics Operations, Inc., priority 2005, dated 2011).

For this series, the system named is LDH. Kind of series: Measurement of different amounts of released LDH in the presence of high amounts of cells with detergent solutions. The series is classed as biochemical, human. The conditions noted are these: for Absorption after 5 min (measurement after 5 days) / Absorption after 5 min, measurement 10 min after terminating the reaction / Absorption after 30 min (measurement after 5 days) / Absorption after 30 min, measurement 10 min after terminating the reaction: 492 nm, 150,000 U 937 cells added, blank subtracted; for Absorption after 5 min (measurement after 5 days) / Absorption after 5 min, measurement 10 min after terminating the reaction / Absorption after 30 min (measurement after 5 days) / Absorption after 30 min, measurement 10 min after terminating the reaction / Stability of the measured values (signal) over 5 days: detergent 1% (v/v); for Absorption of the reduced INT substrate (in words): cationic detergents; for Stability of the measured values (signal) over 5 days: reduced INT colour substrate.

“Also recorded” adds a separate entry of the source.

Regarding `CCCCCCCCCCCCCCCC[N+](C)(C)C.[Br-]` [CTAB, cetyltrimethylammonium bromide], the “Absorption of the reduced INT substrate (in words)” value was “increased” and the “Stability of the measured values (signal) over 5 days” value (shortened to “Stability … over 5 days”) is given as “very stable; also recorded: almost stable”. In addition, under “lysate of 0 cells”, the “Absorption after 5 min (measurement after 5 days)” value is “(0.000)”; the “Absorption after 5 min, measurement 10 min after terminating the reaction” value is on record as 0.000; the “Absorption after 30 min (measurement after 5 days)” value is “(0.000)”; the “Absorption after 30 min, measurement 10 min after terminating the reaction” value came out at 0.000. In addition, for the setting “lysate of 1 000 cells”, the “Absorption after 5 min (measurement after 5 days)” value is “(0.002)”; the “Absorption after 5 min, measurement 10 min after terminating the reaction” value was found to be 0.001; the “Absorption after 30 min (measurement after 5 days)” value is listed as “(0.004)”; the “Absorption after 30 min, measurement 10 min after terminating the reaction” value amounted to 0.010. Further, where the note is “lysate of 10 000 cells”, the “Absorption after 5 min (measurement after 5 days)” value was “(0.021)”; the “Absorption after 5 min, measurement 10 min after terminating the reaction” value turned out to be 0.036; the “Absorption after 30 min (measurement after 5 days)” value was “(0.077)”; the “Absorption after 30 min, measurement 10 min after terminating the reaction” value came to 0.084. Further, for the setting “lysate of 50 000 cells”, the “Absorption after 5 min (measurement after 5 days)” value is recorded as “(0.085)”; the “Absorption after 5 min, measurement 10 min after terminating the reaction” value is recorded as 0.095; the “Absorption after 30 min (measurement after 5 days)” value is recorded as “(0.63)”; the “Absorption after 30 min, measurement 10 min after terminating the reaction” value stood at 0.72.
Take `CCCCCCCCCCCCOS(=O)(=O)[O-].[Na+]` [SDS, sodium dodecyl sulphate]: the “Absorption after 5 min (measurement after 5 days)” value is, setting by setting: (lysate of 0 cells) “(0.000)”; (lysate of 1 000 cells) “(0.000)”; (lysate of 10 000 cells) “(0.000)”; (lysate of 50 000 cells) “(0.008)”. For the same compound, the “Absorption after 5 min, measurement 10 min after terminating the reaction” value is on record as 0.000 (lysate of 0 cells), 0.000 (lysate of 1 000 cells), 0.011 (lysate of 10 000 cells) and 0.093 (lysate of 50 000 cells). The “Absorption after 30 min (measurement after 5 days)” value is given as “(0.000)” (lysate of 0 cells), “(0.000)” (lysate of 1 000 cells), “(0.000)” (lysate of 10 000 cells) and “(0.021)” (lysate of 50 000 cells). For the same compound, the “Absorption after 30 min, measurement 10 min after terminating the reaction” value stood at 0.000 (lysate of 0 cells), 0.007 (lysate of 1 000 cells), 0.078 (lysate of 10 000 cells) and 0.364 (lysate of 50 000 cells). In addition, the “Stability … over 5 days” value (sulphate) is “rapid loss in absorption; also recorded: destabilizing effect”.
As for `CCCCCCCCCCCC[N+](C)(C)C.[Br-]` [DTAB, dodecyltrimethylammonium bromide], the “Absorption of the reduced INT substrate (in words)” value is “increased” and the “Stability … over 5 days” value is reported as “very stable; also recorded: almost stable”. Further, under “lysate of 0 cells”, the “Absorption after 5 min (measurement after 5 days)” value is given as “(0.000)”; the “Absorption after 5 min, measurement 10 min after terminating the reaction” value is 0.000; the “Absorption after 30 min (measurement after 5 days)” value is reported as “(0.000)”; the “Absorption after 30 min, measurement 10 min after terminating the reaction” value is 0.000. In addition, for the setting “lysate of 1 000 cells”, the “Absorption after 5 min (measurement after 5 days)” value is “(0.002)”; the “Absorption after 5 min, measurement 10 min after terminating the reaction” value turned out to be 0.002; the “Absorption after 30 min (measurement after 5 days)” value was “(0.005)”; the “Absorption after 30 min, measurement 10 min after terminating the reaction” value worked out at 0.008. Also, for the setting “lysate of 10 000 cells”, the “Absorption after 5 min (measurement after 5 days)” value is recorded as “(0.026)”; the “Absorption after 5 min, measurement 10 min after terminating the reaction” value was determined as 0.034; the “Absorption after 30 min (measurement after 5 days)” value was “(0.069)”; the “Absorption after 30 min, measurement 10 min after terminating the reaction” value amounted to 0.075. For the setting “lysate of 50 000 cells”, the “Absorption after 5 min (measurement after 5 days)” value is “(0.082)”; the “Absorption after 5 min, measurement 10 min after terminating the reaction” value is recorded as 0.88; the “Absorption after 30 min (measurement after 5 days)” value was “(0.99)”; the “Absorption after 30 min, measurement 10 min after terminating the reaction” value was 0.70.
Consider “octylphenoxypolyethoxyethanol [Triton X100]”, for which the “Stability … over 5 days” value is “decreased considerably”. For the setting “lysate of 0 cells”, the “Absorption after 5 min (measurement after 5 days)” value is recorded as “(0.000)”; the “Absorption after 5 min, measurement 10 min after terminating the reaction” value turned out to be 0.000; the “Absorption after 30 min (measurement after 5 days)” value is listed as “(0.000)”; the “Absorption after 30 min, measurement 10 min after terminating the reaction” value was 0.000. Besides, where the note is “lysate of 1 000 cells”, the “Absorption after 5 min (measurement after 5 days)” value is given as “(0.001)”; the “Absorption after 5 min, measurement 10 min after terminating the reaction” value came to 0.003; the “Absorption after 30 min (measurement after 5 days)” value is given as “(0.001)”; the “Absorption after 30 min, measurement 10 min after terminating the reaction” value is reported as 0.006. Under “lysate of 10 000 cells”, the “Absorption after 5 min (measurement after 5 days)” value was “(0.035)”; the “Absorption after 5 min, measurement 10 min after terminating the reaction” value amounted to 0.038; the “Absorption after 30 min (measurement after 5 days)” value is recorded as “(0.065)”; the “Absorption after 30 min, measurement 10 min after terminating the reaction” value came out at 0.078. Further, where the note is “lysate of 50 000 cells”, the “Absorption after 5 min (measurement after 5 days)” value was “(0.093)”; the “Absorption after 5 min, measurement 10 min after terminating the reaction” value was 0.101; the “Absorption after 30 min (measurement after 5 days)” value is given as “(0.150)”; the “Absorption after 30 min, measurement 10 min after terminating the reaction” value worked out at 0.338.
